Measurements: patent publication US20260265214A1, “NOVEL DERIVATIVES OF GLYCEROL” (SYMRISE AG, priority 2023, published 2026)

Assays:
[1] = Odor description of the prepared substances; conditions: for Odor description: substance as obtained; for Hedonic assessment / Odor character compared with the cis/trans-mixture and the other isomer: pure isomers from Spaltrohr-column distillation
[2] = Evaluation on blotter (strength, dry down)
[3] = Perfume oils in eau de toilette, evaluated blind by a panel of trained perfumers; conditions: 250 of 1000 parts in perfume oil, oil at 10% in eau de toilette; for Strength of the fragrance compared to the version with only solvent: vs perfume oil 11
[4] = Perfume oils in body lotion, evaluated blind by a panel of trained perfumers; conditions: 100 of 1000 parts in perfume oil, oil at 0.3% in body lotion
[5] = Perfume oils in all-purpose cleaner, pH neutral, evaluated blind by a panel of trained perfumers; conditions: 30 of 1000 parts in perfume oil, oil at 0.3% in all-purpose cleaner
[6] = background description; cited from earlier work

Compound: C=CCOCC1COC(CCCCCC)O1 (single isomer, unassigned; isomer 4) [Example 1 cis-isomer, 4-(allyloxymethyl)-2-hexyl-1,3-dioxolane]
- Odor description [1]: Soft, floral, jasminic, slightly greasy

Compound: C=CCOCC1COC(CCCCCC)O1 (mixture of isomers) [4-(Allyloxymethyl)-2-hexyl-1,3-dioxolane (cis:trans mixture ]
- Odor description [1]: Floral, soft, jasminic, reminiscent of methyl dihydrojasmonate, with tea aspects and milky-creamy facets

Compound: CCCCCCC1OCC(OCC(C)=O)CO1 (stereo not drawn) [1-[(2′-hexyl-1′,3′-dioxan-5′-yl)oxy]propan-2-one]
- Odor description [1]: fresh aldehydic, transparent white floral, jasminic, lily of the valley (muguet) with Florhydral aspects and some facets of green banana

Compound: C=CCOC1COC(CCCCCC)OC1 (single isomer, unassigned; isomer 5) [cis-Configured 5-allyloxy-2-hexyl-1,3-dioxane isomer, 5-allyloxy-2-hexyl-1,3-dioxane]
- Odor description [1]: soft, floral, green, with cardboard and earthy facets

Compound: C=CCOCC1COC(CCCCCC)O1 (stereo not drawn) [pure cis-configured 4-(allyloxymethyl)-2-hexyl-1,3-dioxolane]
- Hedonic assessment [1]: hedonically less pleasant
- Odor character compared with the cis/trans-mixture and the other isomer [1]: more of an aldehydic cyclamen character in addition to the jasmine note and it recalls faintly plastic
- Odor description [1]: Fatty, floral, jasmine, with plastic and rubbery nuances, lacking freshness

Compound: CCCCCCC1OCC(OC)CO1 (single isomer, unassigned; isomer 2) [trans-Configured 2-hexyl-5-methoxy-1,3-dioxane isomer, 2-hexyl-5-methoxy-1,3-dioxane]
- Odor description [1]: Floral, metallic, fruity, jasminic, with aspects of cognac

Compound: C=CCOCC1COC(CCCCCC)O1 (stereo not drawn) [pure trans-configured 4-(allyloxymethyl)-2-hexyl-1,3-dioxola] [4-(allyloxymethyl)-2-hexyl-1,3-dioxolane]
- Hedonic assessment [1]: hedonically clearly preferred
- Odor character compared with the cis/trans-mixture and the other isomer [1]: more pronounced and complex floral jasmine odor, with a more distinct airy character, with more body and more transparency
- Odor description [1]: Fresh, hesperidic, jasmine, reminiscent of methyl dihydrojasmonate
- Lasting [2]: lasts longer than the cis-isomer
- Strength on blotter ([2]; also upon dry down): distinctly stronger than the cis-isomer

Compound: C=CCOCC1COC(CCCCCC)O1 (stereo not drawn) [Example 2.1, 4-(allyloxymethyl)-2-hexyl-1,3-dioxolane]
- Odor description [1]: Floral, soft-jasminic airy, solar, reminiscent of methyl dihydrojasmonate, faint champignon note
- Strength of the fragrance compared to the version with only solvent [3]: much stronger
- Effect on creaminess and floral character [4]: enhance the creaminess of the fragrance and increase the floral character
- Effect on the top note ([4]; effect stronger than with methyl dihydrojasmonate): more distinct and fresher citrus bloom in the top note
- Covering of the odor of the body-lotion base ([4]; vs methyl dihydrojasmonate (perfume oil 7)): cover the odor of the body-lotion base much better than methyl dihydrojasmonate
- Effect on floral freshness [5]: improve more the floral freshness in a similar way to methyl dihydrojasmonate
- Effect on the floral-jasmine note ([5]; pH neutral, vs version without (DPG, perfume oil 1)): enhanced the floral-jasmine note compared to the version without

Compound: C=CCOC1COC(CCCCCC)OC1 (single isomer, unassigned; isomer 5) [trans-Configured 5-allyloxy-2-hexyl-1,3-dioxane isomer, 5-allyloxy-2-hexyl-1,3-dioxane]
- Odor description [1]: floral, lily-of-the-valley, jasminic, tea, milky, herbal

Compound: CCCCCCC1OCC(COC)O1 (mixture of isomers) [2-hexyl-4-(methoxymethyl)-1,3-dioxolane]
- Odor description [1]: Floral, jasminic, with some metallic and green facets as well as slightly fatty, greasy facets

Compound: (2′-Hexyl-1′,3′-dioxan-5′-yl)acetate [cis-(2′-Hexyl-1′,3′-dioxan-5′-yl)acetate]
- Odor description [1]: Floral, jasminic, solvent, champignon aspects, metallic undertone

Compound: CCCCCCC1OCC(OC)CO1 (single isomer, unassigned; isomer 2) [cis-Configured 2-hexyl-5-methoxy-1,3-dioxane isomer, 2-hexyl-5-methoxy-1,3-dioxane]
- Odor description [1]: Floral, jasmine, with some aspects of champignons

Compound: CCCCCCC1OCC(COC(C)=O)O1 (mixture of isomers) [(2′-hexyl-1′,3′-dioxolan-4′-yl)methyl acetate]
- Odor description [1]: Floral, fruity, jasminic, metallic

Compound: C=CCOCC1COC(CCCCCC)O1 (single isomer, unassigned; isomer 4) [Example 1 trans-isomer, 4-(allyloxymethyl)-2-hexyl-1,3-dioxolane]
- Odor description [1]: Fresh, citric, jasminic, methyl dihydrojasmonate

Compound: CCCCCC1C(=O)CCC1CC(=O)OC (stereo not drawn) [methyl dihydrojasmonate, methyl 2-(3′-oxo-2′-pentylcyclopentyl)acetate]
- Power compared with the version with product of Example 2.1 [3]: more powerful
- Strength of the fragrance compared to the version with only solvent [3]: much stronger
- Odor [6]: transparent floral-jasminic note accompanied by the soft-fruity freshness of lemons; also recorded: rather subtle and faint

Compound: (2′-Hexyl-1′,3′-dioxan-5′-yl)acetate [trans-(2′-Hexyl-1′,3′-dioxan-5′-yl)acetate]
- Odor description [1]: Floral, jasminic, coconut, myrrh, rather weak

Entries after “also recorded” stand apart in the source; their conditions may differ.
